Experiment: SDS-resistant polymerization of Aβ peptides with Cu^2+ (Western blot, image analysis)
Type: biochemical
Procedure: Following incubation (37° C.), aliquots of each reaction (2 ng peptide) were collected at 0 d, 1 d, 3 d and 5 d and western blotted using anti-Aβ monoclonal antibody 8E10 (FIG. 9). Migration of the molecular size markers are indicated (kDa). […] It should be noted that other means of visualizing and/or determining the presence or absence of polymerization other than western blot analysis may be used. Such other means include but are not limited to density sedimentation by centrifugation of the samples.
As above, electronic images captured using the Fluoro-S Image Analysis System (Bio-Rad, Hercules, Calif.) were analyzed using Multi-Analyst Software (Bio-Rad, Hercules, Calif.).
(0–30 μM) at pH 7.4 and 6.6 and the samples analyzed by Western blot and the signal quantitated using the Fluoro-S Image Analysis System (Bio-Rad, Hercules, Calif.) as previously described.

| Substance | increase in dimerization (pH 6.6, [Cu^2+] increased from 0.5 to 1 μM) | formation of SDS-resistant Aβ polymers (Cu^2+ and Fe^3+, pH 7.4 and 6.6) |
| --- | --- | --- |
| Aβ1-40: synthetic human Aβ1-40 peptide | over 3 fold |  |
| rat Aβ1-40: Rat/mouse Aβ1-40 with substitutions R5G, Y10F, H13R (DAEFGHDSGFEVRHQKLVFFAEDVGSNKGAIIGLMVGGVV; Amyloid-beta protein 40; UniProt P12023 672-711, looked up, fragment) |  | Neither metal ion induced SDS-resistant Aβ polymers |

From patent US7045531B1, “Composition comprising a metal chelator and a method of treating amyloidosis by administering the metal chelator” (The General Hospital Corporation, priority 1997, dated 2006)
